This is one part of the list. These are further read-outs of the screen, such as a control signal, another cell line or another target. No call is given for them. The list favours compounds with an active or inconclusive main result.
assay: blockers of oleate-driven lipid droplets in liver cells – imaging, AML12 mouse hepatocytes, single concentration, high-content, confirmation (AID 463183); details: BODIPY lipid droplet imaging, measured here: cell count, cytotoxicity, at 5.2 µM, droplets induced with 100 µM oleic acid;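 also: cells counted after overnight compound exposure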

Row | SMILES | cell count [cells]
1 | CCCCn1c(=O)[nH]c(=O)c2c1nc(-c1ccc(-c3ccccc3)cc1)n2C | 1700
2 | CCOc1ccc2c(c1)-c1c(ssc1=S)C(C)(C)N2C | 1640
3 | CCc1ccc(NC(=O)CSc2nc3ccccc3nc2N2CCCC2)cc1 | 1480
4 | CCC(C)(C)NC(=O)C(c1ccc(OC)cc1)N(CC1CCCO1)C(=O)CCC(=O)Nc1cc(C)on1 (centres undefined) | 1550
5 | Cc1nn(-c2ccc([N+](=O)[O-])cc2)c2c1C(c1cccc(Br)c1)N1C(=N2)C(=O)Nc2ccccc21 (centres undefined) | 1540
6 | COc1cc2c(cc1NC(=O)CSc1nc3ccc(C)cc3[nH]1)oc1ccccc12 | 1540
7 | COc1ccccc1NC(=O)N1CCCC1C(=O)Nc1ccc2c(c1)OCO2 (centres undefined) | 1530
8 | C=CCOc1ccc(-c2nc3c(c(=O)[nH]c(=O)n3Cc3ccccc3)n2CCCOC)cc1 | 1500
9 | COC(=O)c1ccc(-c2noc(CN(C)CC3CCCCO3)n2)cc1 (centres undefined) | 1540
10 | O=C1c2ccccc2C(=O)c2c(Nc3ccc(CCO)cc3)ccc(O)c21 | 1530
11 | CCCCCn1c(N)c(-c2nc3ccccc3s2)c2c([N+](=O)[O-])nn(CC)c(=O)c21 | 1640
12 | COc1ccc(/C=N/N=C2\SCC(=O)N2c2c(C)n(C)n(-c3ccccc3)c2=O)cc1OC | 1530
13 | COc1ncccc1C(=O)NC1CCCc2c1cnn2-c1ccc(C)c(C)c1 (centres undefined) | 1620
14 | COc1ccc(CCn2ccc(O)c(Cc3ccc(Cl)cc3)c2=O)cc1OC | 1570
15 | COc1ccc(-c2c/c(=N\c3nc(-c4ccccc4)c(C)s3)c3ccccc3o2)cc1O | 744
16 | CCOc1ccc(CCNC(=O)CCS(=O)(=O)c2ccc(Br)cc2)cc1OCC | 1520
17 | CC(=O)Nc1ccc(-c2csc(NC(=O)Cc3cccc(F)c3)n2)cc1 | 1680
18 | COc1ccc2c(c1)c(CC(=O)Nc1ccc(C(C)=O)cc1)c(C)n2C(=O)c1ccc(Cl)cc1 | 1640
19 | COC(C[C@@H](O)C[C@@H](O)COCc1ccccc1)OC | 1610
20 | O=C(CN1C(=O)NC2(CCOc3ccccc32)C1=O)c1ccc(Br)cc1 (centres undefined) | 1600

Row | SMILES | cell count [cells]
21 | CCOc1ccc(CCNC(=O)CCOc2cc(C)ccc2C)cc1OCC | 1560
22 | O=C(NC1CCCc2c1cnn2-c1ccccc1F)c1ccccn1 (centres undefined) | 1510
23 | CCn1cc(CCCC(=O)NCc2cccc(OC)c2)c2ccccc21 | 1640
24 | COCCNC(=S)N1CCc2cc(OC)c(OC)cc2C1COc1cc(C)cc(C)c1 (centres undefined) | 1590
25 | CCOc1ccc(CCNC(=O)COC(=O)/C=C/c2ccc(OCC#N)c(OC)c2)cc1OCC | 1640
26 | FC(F)Oc1ccc(-c2csc(NNC3=NCCCCC3)n2)cc1 | 1540
27 | C=CCNC(=S)Nc1cc(S(=O)(=O)N2CCOCC2)ccc1-n1cncn1 | 1660
28 | Cc1ccc(-n2nc(C)c3c(=O)[nH]c(C(F)(F)F)nc32)cc1 | 1570
29 | CNc1nc(C)c(C(=O)c2ccc(Cl)cc2)s1 | 1570
30 | CCOC(=O)C1=C(C)NC(=O)NC1/C=C/c1ccccc1 (centres undefined) | 1550
31 | CN(C)S(=O)(=O)c1cccc(NC(=O)CC23CC4CC(CC(C4)C2)C3)c1 | 1540
32 | CCOc1ccc(CCNC(=O)CCC(=O)N2CCOc3ccc(C)cc32)cc1OCC | 1640
33 | CCOc1cc(N2CCOCC2)c(OCC)cc1NC(=O)COC(=O)c1cccc2ccccc12 | 1540
34 | C/C(=N\Nc1nc(-c2ccccc2)cs1)c1cccs1 | 1650
35 | COc1ccc(CCNC(=O)c2cc(-c3ccccc3)c(N3CCOCC3)s2)c(OC)c1OC | 1520
36 | O=C(CSc1nc2ccccc2o1)Nc1nc(-c2ccccc2)c(-c2ccccc2)s1 | 1680
37 | O=C(Nc1ccc(NC(=O)c2cc3ccccc3o2)cc1)c1ccco1 | 1550
38 | Fc1ccc(-c2cnn3c(-c4cccs4)ccnc23)cc1 | 1480
39 | CCCC1O[C@@H]2C[C@H]3[C@@H]4CCC5=CC(=O)C=C[C@]5(C)[C@H]4[C@@H](O)C[C@]3(C)[C@]2(C(=O)CO)O1 (some centres undefined) | 1490

Two of these compounds in another layout.
Row,SMILES,cell count [cells]
38,Fc1ccc(-c2cnn3c(-c4cccs4)ccnc23)cc1,1480
39,CCCC1O[C@@H]2C[C@H]3[C@@H]4CCC5=CC(=O)C=C[C@]5(C)[C@H]4[C@@H](O)C[C@]3(C)[C@]2(C(=O)CO)O1 (some centres undefined),1490
